{
  "source": "paper PMC11280027",
  "about": "“Conquering the beyond Rule of Five Space with an Optimized High-Throughput Caco-2 Assay to Close Gaps in Absorption Prediction” (Pharmaceutics, 2024)",
  "origin": "cited, not measured here",
  "settings": "human fraction absorbed; rounded to two significant figures; ref [17]; cited from earlier work",
  "data": [
    {"compound": "Nc1nc2ccc(OC(F)(F)F)cc2s1", "note": "[Riluzole]", "values": [
      {"measurement": "Observed Human fa", "value": 0.90}
    ]}
  ]
}
